Here are results for 1 compound from patent US20030100494A1, “Nerve protective drugs” (priority 1999, published 2003).

Structures are written as SMILES. Non-standard residues stand in square brackets, D forms with d. Residues, ends and D or L forms follow the SMILES beside them. d2Nal = N[C@H](Cc1ccc2ccccc2c1)C(=O)O

The data set has as its system rat ischemia-reperfusion cerebral infarction models. In words: rat ischemia-reperfusion cerebral infarction model after transient obstruction of middle cerebral artery. Type of data set: in vivo. Particulars: KP-102 total 0.16 mg/kg i.v.; means ± standard deviations, 14 rats/group.

As for `C[C@H](NC(=O)[C@@H](Cc1ccc2ccccc2c1)NC(=O)[C@@H](C)N)C(=O)N[C@@H](Cc1c[nH]c2ccccc12)C(=O)N[C@H](Cc1ccccc1)C(=O)N[C@@H](CCCCN)C(N)=O` [KP-102, D-alanyl-3-(2-naphthalenyl)-D-alanyl-L-alanyl-L-tryptophyl-D-phenylalanyl-L-lysineamide] (H-[dA][d2Nal]AW[dF]K-NH2), the “Body temperature (rectal temperature), 1 hour of reperfusion” value was determined as 37.3 ± 0.4 °C; the “Body temperature (rectal temperature), 24 hours of reperfusion” value was 38.1 ± 0.4 °C; the “Body temperature (rectal temperature), 72 hours of reperfusion” value turned out to be 38.1 ± 0.5 °C; the “Body temperature (rectal temperature), immediately before reperfusion” value is 39.4 ± 0.3 °C.
